Assay results as given in US4194006A, “Therapeutic application of acetyl-d,l-carnitine and other acyl derivatives of d,l-carnitine” (priority 1977, dated 1980).
For at least one compound, name, drawing or mass did not settle the structure. Some compounds share one wording; it may come from a single statement.

Tested on: isolated rabbit hearts
Assay: cardiokinetic effect on isolated heart (Langendorff): contractile force after anoxia, positive inotropic effect
Conditions: equal concentrations in the perfusion fluid; Student's t test
Description: The cardiokinetic effect on isolated heart was also investigated as follows. Rabbit hearts isolated by the Langendorff method were perfused with oxygenized ringer solution at 38.2° C. The isometric contractions, electrocardiogram and coronary flow were recorded using a "Battaglia-Rangoni" polygraph. By removing the oxygen from the perfusion fluid, metabolic damage was induced in the cardia muscle, up to an 80% reduction in the cardiac contractile force.
Under these conditions of prolonged anoxia the aerobic glycolysis of the myocardium is slowed down, accompanied by the storage of acid catabolites due to both the accumulation of pyruvic acid and its conversion to lactic acid which cannot be utilized because of the depression of pyridine enzymes, such as LDH (lactodehydrogenase). This has repercussions on the anaerobic glycolysis affecting an ever increasing number of enzymes, accompanied by a progressive and increasingly critical exhaustion of the myocardium. Thus a whole series of cardiac muscle fatigue levels occurs which can be observed by the behavior of the examined parameters, namely the contractile force, coronary flow, heart rate and cardiac rhythm. […]
Table 3 below gives the percentage values of the contractile force of the heart, showing a positive inotropic effect, calculated after 10 minutes from the interruption of the anoxic period (myocardial restoration).

SMILES: CC(=O)CC(=O)OC(CC(=O)[O-])C[N+](C)(C)C (racemic) [acetoacetyl-d,l-carnitine]
- positive inotropic effect: greater positive inotropic effect than that induced by d,l-carnitine

SMILES: CCCC(=O)OC(CC(=O)[O-])C[N+](C)(C)C (racemic) [butyryl-d,l-carnitine]
- positive inotropic effect: greater positive inotropic effect than that induced by d,l-carnitine
